No constants are given. Whether binding was seen depends on the method and setting. Binding seen in cells or lysates may run through a third protein. A result given as binding can be weak or reduced; the word gives no strength.
Biological target: HA-Yrt (D. melanogaster) (UniProt Q9VFU8)
Experiment: co-IP

FLAG-tagged full length (FL) Yrt (from UniProt Q9VFU8)
binding: binds

Source: doi:10.1101/2023.09.28.559937
